# Measurements published in PubChem BioAssay AID493014 (National Center for Advancing Translational Sciences (NCATS), 2011).
# The list shows a part of the results. Further columns of the screen follow, without active or inactive calls. Most of these compounds were active or inconclusive in the main read-out, so they are no random draw. Words in brackets tell the shape of the fitted curve; partial curves, single points and poor fits give uncertain potencies.
# Test: qHTS Assay to Find Inhibitors of Chronic Active B-Cell Receptor Signaling
# Conditions: ABC-DLBCL IkBa-CBG/CBR reporter, luminescence ratio (green luciferase fused to IkBa over red control in TMD8 lymphoma cells), 4 h; measured here: CBR red luminescence, cell number
# How it was run: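 TMD8 human ABC-DLBCL cells with doxycycline-inducible IκBα–green luciferase fusion and unfused red luciferase, in 0.5% FBS medium; compounds up to 46 uM, 4 h at 37C. Green/red luminescence ratio, filter-overlap corrected, fitted to concentration-response curves.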
row,Structure (SMILES),AC50
1,CCO[C@H]1OC(C(=O)NCc2nc3ccccc3[nH]2)=C[C@@H](c2ccc(C(F)(F)F)cc2)[C@@H]1CCCO,"35.5 µM [falling, single point]"
2,COc1ccc(OC)c(C(=O)N2CCC(n3nccc3NC(=O)CC(C)C)CC2)c1,"35.5 µM [rising, single point]"
3,Cc1ccc2nc(-c3cccnc3)c(NC3CCCCC3)n2c1,"10.3 µM [falling, partial curve, poor fit]"
4,O=C(CCc1ccccc1)Nc1cccc(NC(=O)CCc2ccccc2)c1,"1.64 µM [falling, full curve]"
5,c1ccc(OCCOCCSc2ncccn2)cc1,"11.2 µM [falling, partial curve]"
6,Cc1c(NC(=O)CN2C(=O)NC(C)(c3ccccc3)C2=O)c(=O)n(-c2ccccc2)n1C (stereo not drawn),"0.231 µM [rising, partial curve]"
7,Cc1cnc(C(=O)OC(C)C(=O)Nc2ccc3c(c2)OCCO3)cn1 (stereo not drawn),"0.794 µM [falling, full curve]"
8,O=C(Nc1cccc(Cl)c1)N1CC2CCCN2c2ccccc21 (stereo not drawn),"11.2 µM [rising, single point]"
9,CC1(C)CC(=O)C2=C(C1)N(c1ccc(F)cc1)C(N)=C(C#N)C2c1cccs1 (stereo not drawn),"3.16 µM [falling, full curve, poor fit]"
10,CC(C)CNC(=O)C1CCN(Cc2ccc(OCc3ccccc3)cc2)CC1,"4.61 µM [rising, single point]"
11,COc1ccc(N2CC(C(=O)OCC(=O)Nc3cccc(C)c3C)CC2=O)cc1 (stereo not drawn),"35.5 µM [rising, partial curve, poor fit]"
12,CN(C)CCCN(C(=O)c1ccc(S(=O)(=O)N2CCCC2)cc1)c1nc2ccc(Br)cc2s1,"35.5 µM [falling, single point]"
13,CCOC(=O)C1=C(CC)Nc2ccccc2N=C1NC(=O)Nc1ccc(Cl)c(Cl)c1,"29.1 µM [falling, single point]"
14,COc1ccc(N=Cc2c(O)[nH]c3ccccc23)cc1OC,"14.6 µM [falling, single point]"
15,Cc1nc(N2CCN(C(=O)c3ccco3)CC2)nc2c1C(=O)CC(C)C2 (stereo not drawn),"6.31 µM [rising, single point]"
16,CC(=O)c1c(C)[nH]c(C(=O)OCc2nnc(-c3ccccc3)o2)c1C,"0.517 µM [rising, full curve, poor fit]"
17,COc1ccc(-c2cc(C(=O)Nc3ccccc3F)on2)cc1,"1.41 µM [falling, full curve]"
18,COC(=O)c1ccccc1NC(=O)c1cccc(NC(=O)c2ccc(Br)o2)c1C,"0.082 µM [falling, full curve, poor fit]"

# From entry 13 to 14, copied from above:
row,Structure (SMILES),AC50
13,CCOC(=O)C1=C(CC)Nc2ccccc2N=C1NC(=O)Nc1ccc(Cl)c(Cl)c1,"29.1 µM [falling, single point]"
14,COc1ccc(N=Cc2c(O)[nH]c3ccccc23)cc1OC,"14.6 µM [falling, single point]"
